Taken from: PubChem BioAssay AID652243 (Drosophila RNAi Screening Center, 2013)

Screen: 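Knock-downs that decrease or increase androgen receptor reporter signal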 (primary screen)
System: Drosophila S2R+ cells
Reagents: long dsRNA against Drosophila genes
Duration: 72 h (48 h, then 24 h hormone)
Challenge: synthetic androgen R1881 at 10 nM for 24 h
Measured: 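Firefly light from an androgen-responsive reporter and Renilla control light per well, raw and unnormalised, for each of two replicates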
Scale: firefly reporter light: higher = more light from androgen-responsive reporter; Renilla control light: higher = more constitutive control signal (cell number, transfection)
Hit rule: 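Hit when the log firefly-to-Renilla ratio dropped or increased by a fixed fold versus the mean of GFP or LacZ controls across duplicate plates; lowering cut given as 1.5 and as 3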
Calls: active = hit: reporter lowered or raised; inactive = no hit
The deposit covers about 24,000 reagents; this is a random part of those that have a named target and a result. Of all reagents, 246 (1%) are marked active. 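Plates not normalised; calls are printed but the firefly/Renilla ratio behind them is not deposited; fold cut for lowering reported inconsistently.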 Raw values are not corrected between plates. Not given: the amount of reagent.

predicted target	amplicon	firefly reporter light, replicate 1	firefly reporter light, replicate 2	Renilla control light, replicate 1	Renilla control light, replicate 2	activity call
CG11858	DRSC14412	7.26e5	7.04e5	1.88e6	1.33e6	inactive
CG11858	DRSC29222	1.02e6	9.19e5	1.46e6	1.17e6	inactive
CG15550	DRSC15088	1.56e5	1.66e5	2.09e6	2.99e6	inactive
CG15550	DRSC29401	3.66e5	4.31e5	1.04e6	1.04e6	inactive
ERR	DRSC10840	8.77e5	9.72e5	9.89e5	1.55e6	inactive
CG31097	DRSC14666	2.31e5	2.24e5	2.14e6	2.29e6	inactive
CG31097	DRSC39311					inactive
CG13748	DRSC06419	2.01e5	1.35e5	1.24e6	6.08e5	inactive
CG12780	DRSC06169	5.24e5	3.82e5	2.06e6	1.72e6	inactive
CG4686	DRSC15622	4.16e5	3.35e5	3.49e6	4.11e6	inactive
Hmt4-20	DRSC18482	35163	28033	65456	1.14e5	inactive
Hmt4-20	DRSC23921	4.30e5	3.70e5	4.51e5	3.19e5	inactive
Jhbp4	DRSC14222	97690	1.91e5	1.82e6	2.27e6	inactive
CG13193	DRSC06318	3.89e5	2.69e5	2.72e6	2.30e6	inactive
Ino80	DRSC14760	2.67e5	1.86e5	3.22e6	2.36e6	inactive
Ino80	DRSC15333	2.28e5	2.61e5	2.18e6	2.12e6	inactive
Ino80	DRSC15501	2.05e5	2.43e5	3.24e6	2.41e6	inactive
RIOK2	DRSC14413	1.86e5	2.07e5	2.53e6	2.07e6	inactive
RIOK2	DRSC36955					inactive
RIOK2	DRSC36956					inactive

Entries listed so far whose target name begins with I or i:
predicted target	amplicon	firefly reporter light, replicate 1	firefly reporter light, replicate 2	Renilla control light, replicate 1	Renilla control light, replicate 2	activity call
Ino80	DRSC14760	2.67e5	1.86e5	3.22e6	2.36e6	inactive
Ino80	DRSC15333	2.28e5	2.61e5	2.18e6	2.12e6	inactive
Ino80	DRSC15501	2.05e5	2.43e5	3.24e6	2.41e6	inactive

More results follow:
predicted target	amplicon	firefly reporter light, replicate 1	firefly reporter light, replicate 2	Renilla control light, replicate 1	Renilla control light, replicate 2	activity call
ewg	DRSC18773	6.54e5	9.11e5	2.30e6	2.13e6	inactive
ewg	DRSC26141	2.88e5	2.25e5	8.58e5	6.20e5	inactive
CG1265	DRSC08288	1.35e5	2.14e5	2.43e6	3.33e6	inactive
RhoGDI	DRSC10919	81287	1.05e5	7.77e5	6.61e5	inactive
Smyd3	DRSC17744	3.32e5	2.74e5	3.23e6	2.26e6	inactive
Smyd3	DRSC26723	4.60e5	4.18e5	2.72e5	3.11e5	inactive
Smyd3	DRSC38965	6.88e5	7.80e5	1.68e6	1.54e6	inactive
CG10185	DRSC14205	1.80e5	2.02e5	2.44e6	2.34e6	inactive
hpRNA:CR33940	DRSC39118	4.95e5	4.73e5	1.84e6	1.78e6	inactive
CG3226	DRSC18296	1.18e5	1.24e5	1.03e6	7.93e5	inactive
CG13306	DRSC09976	2.20e5	2.76e5	2.19e6	2.29e6	inactive
CG17929	DRSC15291	2.20e5	1.93e5	2.14e6	2.33e6	inactive
H15	DRSC03339	1.13e5	1.13e5	9.88e5	9.38e5	inactive
H15	DRSC22199	6.23e5	5.44e5	2.43e6	1.99e6	inactive
H15	DRSC25176	5.31e5	7.58e5	6.66e5	5.75e5	inactive
Dup99B	DRSC22877	4.02e5	6.20e5	9.75e5	1.45e6	inactive
Dup99B	DRSC29633	3.91e5	4.59e5	1.19e6	1.19e6	inactive
Rab3-GEF	DRSC19954	4.29e5	4.23e5	3.06e6	3.03e6	inactive
Rab3-GEF	DRSC19955	4.59e5	5.43e5	4.36e6	4.67e6	inactive
Rab3-GEF	DRSC27720	3.68e5	2.01e5	5.25e5	4.93e5	inactive
CG8788	DRSC07267	3.67e5	2.67e5	2.16e6	1.65e6	inactive
Sec3	DRSC10384	85322	83435	5.36e5	8.01e5	inactive
Mic26-27	DRSC15913	1.75e5	1.21e5	8.01e5	8.43e5	inactive
vrs	DRSC15832	1.77e5	1.64e5	2.18e6	1.57e6	inactive
vrs	DRSC26261	3.54e5	3.99e5	6.07e5	7.64e5	inactive
Ir92a	DRSC15111	2.41e5	2.43e5	2.87e6	3.41e6	inactive
Or85e	DRSC16768	1.33e5	1.86e5	2.18e6	1.62e6	inactive
CycG	DRSC14324	97120	1.07e5	6.74e5	5.21e5	inactive
CycG	DRSC23345	9.48e5	8.96e5	9.73e5	8.73e5	inactive
CycG	DRSC36962					inactive
CG4465	DRSC15584	2.86e5	2.32e5	3.07e6	2.95e6	inactive
Lztr1	DRSC18176	2.07e5	2.50e5	3.41e6	3.79e6	inactive
Lztr1	DRSC18647	2.65e5	2.29e5	2.71e6	3.04e6	inactive
Lztr1	DRSC26706	3.74e5	3.31e5	4.59e5	4.95e5	inactive
Tcs4	DRSC19587	1.35e5	61283	8.88e5	8.59e5	inactive
Tcs4	DRSC28855	4.27e5	2.80e5	9.86e5	7.39e5	inactive
CG5614	DRSC15845	5.80e5	5.19e5	3.19e6	2.65e6	inactive
bif	DRSC18901	1.08e6	5.83e5	1.95e6	9.86e5	inactive
bif	DRSC20313	79651	90978	6.93e5	5.79e5	inactive
bif	DRSC28382	2.91e5	4.96e5	6.81e5	1.10e6	inactive
